Laboratory results reported in article PMC4357729.
No constants are given. Whether binding was seen depends on the method and setting. Binding seen in cells or lysates may run through a third protein. These calls come from enrichment with a bait or labelling near it, and not all partners need be listed.

The chains behind the UniProt entries cited, without tags or fusion partners.
UniProt Q8CJG0: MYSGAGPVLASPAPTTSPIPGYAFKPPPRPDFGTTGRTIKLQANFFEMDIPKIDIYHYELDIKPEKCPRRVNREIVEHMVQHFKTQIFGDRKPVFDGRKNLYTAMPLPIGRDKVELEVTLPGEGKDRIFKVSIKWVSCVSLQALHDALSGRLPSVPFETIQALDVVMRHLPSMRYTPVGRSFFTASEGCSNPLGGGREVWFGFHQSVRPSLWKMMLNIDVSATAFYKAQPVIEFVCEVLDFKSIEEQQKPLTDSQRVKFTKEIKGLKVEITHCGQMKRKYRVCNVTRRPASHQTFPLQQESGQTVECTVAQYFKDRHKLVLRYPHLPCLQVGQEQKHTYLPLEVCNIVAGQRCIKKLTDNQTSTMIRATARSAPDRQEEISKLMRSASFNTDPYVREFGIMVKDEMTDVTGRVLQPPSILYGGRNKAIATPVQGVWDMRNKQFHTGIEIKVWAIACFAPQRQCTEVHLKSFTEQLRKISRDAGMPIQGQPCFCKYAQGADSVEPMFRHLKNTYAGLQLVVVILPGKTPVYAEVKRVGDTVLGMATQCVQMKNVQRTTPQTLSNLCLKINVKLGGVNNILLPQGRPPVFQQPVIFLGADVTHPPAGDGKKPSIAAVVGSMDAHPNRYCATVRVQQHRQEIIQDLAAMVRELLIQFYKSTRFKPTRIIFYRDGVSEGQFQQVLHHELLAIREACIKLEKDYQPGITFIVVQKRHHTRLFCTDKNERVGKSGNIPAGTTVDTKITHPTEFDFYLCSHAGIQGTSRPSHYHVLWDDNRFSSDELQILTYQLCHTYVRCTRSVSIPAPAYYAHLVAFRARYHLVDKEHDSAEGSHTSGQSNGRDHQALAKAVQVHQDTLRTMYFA
UniProt Q6ZQ08: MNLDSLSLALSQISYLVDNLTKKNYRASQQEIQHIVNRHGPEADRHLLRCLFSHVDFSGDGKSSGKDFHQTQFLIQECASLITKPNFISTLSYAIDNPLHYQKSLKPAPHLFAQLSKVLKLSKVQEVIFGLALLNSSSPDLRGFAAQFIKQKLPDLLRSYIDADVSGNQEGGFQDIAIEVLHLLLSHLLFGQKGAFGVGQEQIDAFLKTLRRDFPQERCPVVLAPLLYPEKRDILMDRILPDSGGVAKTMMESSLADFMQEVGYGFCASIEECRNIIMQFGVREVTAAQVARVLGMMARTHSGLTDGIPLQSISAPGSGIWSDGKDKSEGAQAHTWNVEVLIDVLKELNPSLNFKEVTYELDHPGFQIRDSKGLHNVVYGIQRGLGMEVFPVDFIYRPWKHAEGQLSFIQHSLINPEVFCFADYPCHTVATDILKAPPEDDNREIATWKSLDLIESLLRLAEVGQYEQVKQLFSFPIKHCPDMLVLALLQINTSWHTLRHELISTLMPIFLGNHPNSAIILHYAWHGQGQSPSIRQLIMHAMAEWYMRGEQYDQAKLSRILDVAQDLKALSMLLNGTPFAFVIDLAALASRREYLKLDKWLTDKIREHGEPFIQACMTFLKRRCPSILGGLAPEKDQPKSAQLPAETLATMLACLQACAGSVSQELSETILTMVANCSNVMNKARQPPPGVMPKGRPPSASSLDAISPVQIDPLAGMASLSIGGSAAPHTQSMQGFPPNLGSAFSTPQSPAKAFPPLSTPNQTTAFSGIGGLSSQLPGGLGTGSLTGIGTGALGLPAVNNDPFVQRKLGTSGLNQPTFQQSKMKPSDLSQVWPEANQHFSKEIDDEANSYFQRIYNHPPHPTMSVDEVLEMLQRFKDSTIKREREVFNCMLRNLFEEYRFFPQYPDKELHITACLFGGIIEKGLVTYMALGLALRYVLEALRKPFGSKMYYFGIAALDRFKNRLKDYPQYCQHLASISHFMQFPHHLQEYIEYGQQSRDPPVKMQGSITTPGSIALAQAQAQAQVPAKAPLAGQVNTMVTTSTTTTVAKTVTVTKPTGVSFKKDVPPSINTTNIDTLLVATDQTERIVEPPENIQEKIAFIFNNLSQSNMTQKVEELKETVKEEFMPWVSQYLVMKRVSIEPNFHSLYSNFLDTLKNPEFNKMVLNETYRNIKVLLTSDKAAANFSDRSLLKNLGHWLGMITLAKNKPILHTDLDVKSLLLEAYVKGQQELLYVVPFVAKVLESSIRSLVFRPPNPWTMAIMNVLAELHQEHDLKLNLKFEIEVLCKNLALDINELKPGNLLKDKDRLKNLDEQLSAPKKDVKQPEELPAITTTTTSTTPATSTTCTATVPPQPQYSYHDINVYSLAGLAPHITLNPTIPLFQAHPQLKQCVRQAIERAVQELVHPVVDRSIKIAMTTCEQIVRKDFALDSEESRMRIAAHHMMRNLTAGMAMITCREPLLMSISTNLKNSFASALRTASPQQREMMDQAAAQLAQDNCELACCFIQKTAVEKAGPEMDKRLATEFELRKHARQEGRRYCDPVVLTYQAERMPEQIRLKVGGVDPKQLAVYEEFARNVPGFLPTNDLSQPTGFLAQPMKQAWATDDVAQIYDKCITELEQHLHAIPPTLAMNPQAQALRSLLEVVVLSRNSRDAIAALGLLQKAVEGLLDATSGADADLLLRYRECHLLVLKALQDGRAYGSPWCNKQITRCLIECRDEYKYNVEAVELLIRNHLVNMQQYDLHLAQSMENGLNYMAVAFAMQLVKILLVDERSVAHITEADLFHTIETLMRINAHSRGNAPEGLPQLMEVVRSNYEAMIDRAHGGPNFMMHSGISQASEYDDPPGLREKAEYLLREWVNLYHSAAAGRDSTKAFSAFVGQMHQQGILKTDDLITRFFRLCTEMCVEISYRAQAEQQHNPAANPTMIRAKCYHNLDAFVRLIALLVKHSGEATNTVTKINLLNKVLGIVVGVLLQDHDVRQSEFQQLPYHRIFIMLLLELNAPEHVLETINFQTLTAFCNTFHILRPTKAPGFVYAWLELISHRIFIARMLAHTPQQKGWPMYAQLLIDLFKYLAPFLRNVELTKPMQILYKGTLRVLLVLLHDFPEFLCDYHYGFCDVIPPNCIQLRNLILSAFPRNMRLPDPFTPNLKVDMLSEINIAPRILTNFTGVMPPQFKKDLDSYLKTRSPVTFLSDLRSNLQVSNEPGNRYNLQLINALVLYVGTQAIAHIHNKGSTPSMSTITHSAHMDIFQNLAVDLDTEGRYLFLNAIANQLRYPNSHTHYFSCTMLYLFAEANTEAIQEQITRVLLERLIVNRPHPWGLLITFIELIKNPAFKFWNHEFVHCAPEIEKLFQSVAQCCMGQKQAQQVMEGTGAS
UniProt Q80U78: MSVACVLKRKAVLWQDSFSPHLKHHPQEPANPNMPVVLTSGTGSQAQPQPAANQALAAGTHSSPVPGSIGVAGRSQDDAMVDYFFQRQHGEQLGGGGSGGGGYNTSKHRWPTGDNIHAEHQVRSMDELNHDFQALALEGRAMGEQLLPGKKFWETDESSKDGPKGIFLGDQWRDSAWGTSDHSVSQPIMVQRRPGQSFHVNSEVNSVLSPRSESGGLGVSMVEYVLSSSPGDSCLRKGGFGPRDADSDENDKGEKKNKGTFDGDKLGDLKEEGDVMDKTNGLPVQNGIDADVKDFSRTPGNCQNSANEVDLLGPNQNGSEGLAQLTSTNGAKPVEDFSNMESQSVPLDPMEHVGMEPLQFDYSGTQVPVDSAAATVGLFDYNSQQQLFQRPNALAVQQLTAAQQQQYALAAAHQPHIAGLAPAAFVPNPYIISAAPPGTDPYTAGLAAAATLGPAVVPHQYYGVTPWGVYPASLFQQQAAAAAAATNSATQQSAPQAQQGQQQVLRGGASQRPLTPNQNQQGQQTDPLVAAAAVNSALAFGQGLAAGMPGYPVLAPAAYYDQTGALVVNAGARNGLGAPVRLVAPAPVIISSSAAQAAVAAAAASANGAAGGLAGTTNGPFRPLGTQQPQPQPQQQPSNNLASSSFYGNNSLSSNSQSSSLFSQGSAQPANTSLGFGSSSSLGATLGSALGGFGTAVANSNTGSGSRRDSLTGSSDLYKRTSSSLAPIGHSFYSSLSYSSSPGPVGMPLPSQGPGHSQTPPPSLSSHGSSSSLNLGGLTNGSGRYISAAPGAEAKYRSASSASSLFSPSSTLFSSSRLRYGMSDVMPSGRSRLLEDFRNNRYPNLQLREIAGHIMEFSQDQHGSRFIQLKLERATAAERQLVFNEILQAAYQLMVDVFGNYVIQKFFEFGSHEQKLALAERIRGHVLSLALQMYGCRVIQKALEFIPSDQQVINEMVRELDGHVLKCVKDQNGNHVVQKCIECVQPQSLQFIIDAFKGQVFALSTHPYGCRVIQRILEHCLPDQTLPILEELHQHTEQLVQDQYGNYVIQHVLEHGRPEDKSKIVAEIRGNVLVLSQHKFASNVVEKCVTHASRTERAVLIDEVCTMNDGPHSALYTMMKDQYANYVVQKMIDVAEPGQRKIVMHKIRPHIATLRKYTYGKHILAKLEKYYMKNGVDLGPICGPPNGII
UniProt Q9CZY3: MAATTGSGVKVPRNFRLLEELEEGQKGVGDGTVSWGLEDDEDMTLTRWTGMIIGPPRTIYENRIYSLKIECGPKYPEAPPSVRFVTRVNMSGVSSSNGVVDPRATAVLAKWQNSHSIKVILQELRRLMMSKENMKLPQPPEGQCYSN

Key:
[1] = target: T1, TRIM32 (endogenous, mouse) (mouse (endogenous in NSCs and brain)) (UniProt Q8CH72); test: affinity purification with mass spectrometry; TRIM32 precipitated with anti-TRIM32 antibodies (1137/3149) on protein-G Sepharose from cytoplasmic and nuclear fractions of mouse NSCs under maintenance conditions or 3 days after induction of neuronal differentiation; Benzonase added; eluted with two TRIM32 peptides; LC-MS/MS; negative control anti-EGFP on whole-mouse brain lysate; conducted only once
T1 sequence: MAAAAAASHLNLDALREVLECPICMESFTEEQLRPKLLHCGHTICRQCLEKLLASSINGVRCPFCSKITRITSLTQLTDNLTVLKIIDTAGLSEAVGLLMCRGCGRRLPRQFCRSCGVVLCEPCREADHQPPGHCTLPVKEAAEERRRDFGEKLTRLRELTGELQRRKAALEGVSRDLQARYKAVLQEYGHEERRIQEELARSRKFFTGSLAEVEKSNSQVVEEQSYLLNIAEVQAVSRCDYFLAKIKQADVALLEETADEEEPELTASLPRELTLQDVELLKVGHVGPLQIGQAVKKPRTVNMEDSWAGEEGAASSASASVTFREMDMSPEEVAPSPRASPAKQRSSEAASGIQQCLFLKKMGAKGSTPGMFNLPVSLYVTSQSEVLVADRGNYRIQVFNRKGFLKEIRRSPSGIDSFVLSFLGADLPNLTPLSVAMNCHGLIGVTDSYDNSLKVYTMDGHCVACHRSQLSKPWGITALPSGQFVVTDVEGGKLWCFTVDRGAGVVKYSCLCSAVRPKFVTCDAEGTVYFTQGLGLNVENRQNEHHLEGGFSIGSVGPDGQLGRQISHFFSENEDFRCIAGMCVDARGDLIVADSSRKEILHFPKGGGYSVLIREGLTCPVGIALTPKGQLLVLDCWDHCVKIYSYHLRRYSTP

[2] = target: T1, TRIM32 (endogenous, mouse) (mouse (endogenous in NSCs and brain)); test: affinity purification with mass spectrom

Substance	binding [1]	binding [2]
Argonaute 2 (endogenous, mouse) (from UniProt Q8CJG0 1-860)	binds	
CNOT1 (from UniProt Q6ZQ08 1-2375)	binds	
Pumilio 1 (endogenous, mouse) (from UniProt Q80U78 1-1189)	binds	
UBE2V1 (from UniProt Q9CZY3 1-147)		binds
tropomyosin-1α (from UniProt P58771 1-284)		binds
